PubChem BioAssay AID1259254 | NCATS – 2017

Screen: 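Gene knock-downs that lead to re-replication, shown by excess G2 DNA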 (primary screen)
Cell system: human HCT116 colorectal cancer cells
Reagent: single siRNA against human genes
Time to read-out: 3 days
Read-out: 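Nuclei stained with Hoechst and imaged; cell-cycle phase assigned by DNA content; G2 share scaled per plate, non-targeting siRNA 0%, GMNN siRNA 100%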
Direction: G2 robust z-score: higher = more G2 cells, more excess DNA replication
Hit rule: 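Active siRNAs have a G2 robust z of 5 or more median absolute deviations over the median, which in these data means about 38% or higher of GMNN control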
This is a random part of about 59,000 deposited reagents. Of all reagents, about 1,550 (2.6%) got an active call. 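G2 share is only a proxy for re-replication; each gene was hit by three separate siRNAs, and active genes were retested.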 The numbers tell different reagents against one gene apart. Further read-outs or replicates are left out here. No sequences are given here. Not stated in the record: the amount of reagent.

For NHSL1 (NHS like 1) #1, how do the results read?
G2 robust z-score: 0.051; Call: inactive

How did the screen score NHSL1 (NHS like 1) #2?
G2 robust z-score: 0.673; Call: inactive

How did the screen score NHSL1 (NHS like 1) #3?
G2 robust z-score: 0.000493; Call: inactive

With ALG1L1P (ALG1 like 1, pseudogene) #1, what does the deposit list?
G2 robust z-score: 3.57; Call: inactive

What is on record for ALG1L1P (ALG1 like 1, pseudogene) #2?
G2 robust z-score: 1.78; Call: inactive

For ALG1L1P (ALG1 like 1, pseudogene) #3, what was measured?
G2 robust z-score: -0.515; Call: inactive

What did the screen give for CYB5D1 (cytochrome b5 domain containing 1) #1?
G2 robust z-score: 1.64; Call: inactive

What is on record for CYB5D1 (cytochrome b5 domain containing 1) #2?
G2 robust z-score: -1.12; Call: inactive

How did the screen score CYB5D1 (cytochrome b5 domain containing 1) #3?
G2 robust z-score: -0.449; Call: inactive

For AASS (aminoadipate-semialdehyde synthase) #1, how do the results read?
G2 robust z-score: -0.317; Call: inactive

With AASS (aminoadipate-semialdehyde synthase) #2, how do the results read?
G2 robust z-score: 0.613; Call: inactive

What is on record for AASS (aminoadipate-semialdehyde synthase) #3?
G2 robust z-score: 1.77; Call: inactive

What is on record for COQ4 (coenzyme Q4) #1?
G2 robust z-score: 2.66; Call: inactive

With COQ4 (coenzyme Q4) #2, how do the results read?
G2 robust z-score: -0.188; Call: inactive

For COQ4 (coenzyme Q4) #3, what was measured?
G2 robust z-score: -0.516; Call: inactive

Entries listed so far whose target name begins with N or n (3):
NHSL1 (NHS like 1) #1 — G2 robust z-score = 0.051; Call = inactive
NHSL1 (NHS like 1) #2 — G2 robust z-score = 0.673; Call = inactive
NHSL1 (NHS like 1) #3 — G2 robust z-score = 0.000493; Call = inactive

Additional reagents:
With PHETA2 (PH domain containing endocytic trafficking adaptor 2) #1, what was measured?
G2 robust z-score: -0.42; Call: inactive

With PHETA2 (PH domain containing endocytic trafficking adaptor 2) #2, how do the results read?
G2 robust z-score: -0.468; Call: inactive

With PHETA2 (PH domain containing endocytic trafficking adaptor 2) #3, what was measured?
G2 robust z-score: -1.11; Call: inactive

What is on record for SLC9B1 #1?
G2 robust z-score: 0.493; Call: inactive

How did the screen score SLC9B1 #2?
G2 robust z-score: -0.16; Call: inactive

Which result is listed for SLC9B1 #3?
G2 robust z-score: 0.975; Call: inactive

For OMD (osteomodulin) #1, what does the deposit list?
G2 robust z-score: 0.93; Call: inactive

How did the screen score OMD (osteomodulin) #2?
G2 robust z-score: -0.554; Call: inactive

Which result is listed for OMD (osteomodulin) #3?
G2 robust z-score: -0.642; Call: inactive
